# Out of some 71,000 compounds screened, about 310 (0.44%) were called active. Inconclusive means that the source gave no clear call. Such entries were picked first, then a sample of the others. The call rests on the fitted dose curve; in most records, active means well fitted curve in either direction with a large enough effect; inconclusive means small, poorly fitted or top-dose-only effect, or another doubt; inactive means flat fitted curve, though single readings scatter. A potency beside an inconclusive call is a rough fit, not a confirmed value.
# Tested on: Hsp90 C-terminal peptide / TPR2A (Hop) interaction, human
# Test: qHTS Assay for Disrupters of an Hsp90 Co-Chaperone Interaction
# Details: AlphaScreen TPR2A-His6 binding biotin-Hsp90 C-terminal peptide; activity change, negative = inhibition: at 57 µM (top of the series) unless noted
# Source text: NIH Chemical Genomics Center [NCGC]
# NIH Molecular Libraries Screening Centers Network [MLSCN]
# Hsp90 (heat shock protein 90) is the essential molecular chaperone and it accounts for 1-2% of all cytosolic proteins and is critical for the activity of diverse cellular proteins that are involved in a variety of cellular processes, including development, cell cycle, and steroid hormone signaling. Its client proteins include signaling kinases such as IGF1R, Akt, v-Src, Raf-1; regulators of cell survival such as Bcr-Abl; and transcription factors such as mutated p53, estrogen and progesterone receptors. Hsp90 has emerged as an important target for cancer treatment due to its essential role in maintaining transformation and regulating the function of oncogenic signaling proteins.
# The in vivo function of Hsp90 is regulated by the binding and hydrolysis of ATP at its N-terminal. Geldanamycin binds to ATP site and inhibit Hsp90 function. Geldanamycin and its analogues are under clinical trials in cancer patients.
# This domain contains the binding site for tetratricopeptide repeat (TPR) domains on HOP (Hsp Organizing Protein). TPR is a structural motif used by a significant number of cochaperones by which the in vivo function of Hsp90 is regulated. TPR2A on HOP binds specifically to MEEVD motif of the C-terminal of Hsp90.
# A homogeneous AlphaScreen is developed to assess the interaction between TPR2A and MEEVD motif of the C-terminal of Hsp90 by using the isolated TPR2A domain and a synthesized 20mer Hsp90 C terminal peptide. AlphaScreen is two bead-based proximity-dependent chemical energy transfer luminescent assay platform. TPR2A-His-6 and biotinylated Hsp90 C terminal peptide will bring streptavidin donor beads and nickel chelate acceptor beads to a proximity range (less than 200 nm), and subsequently lead a chemical luminescent reaction upon exciting donor beads with 680 nm laser. Inhibition of TPR2A and MEEVD motif interaction by small molecules could attenuate or abolish this chemical luminescent reaction.
# Counter screening: Biotinylated-His-6 (PerkinElmer) can be utilized as a counter screen, as it serves as a linker to bring streptavidin beads and nickel chelate beads together. The counter screen can exclude alpha screen platform false positives due to small molecules being metal chelators, biotin analogues and imidazole analogues, or due to interfering with oxygen release from donor beads. Such an assay should be utilized to qualify any activity observed in this screen.
# NCGC Assay Protocol Summary:
# The assay was performed on 1536-well white plate (untreated solid bottom). Liquids were dispensed by 1536-well plate washer (Kalypsys, San Diego, CA). Plates were read on EnVision (PerkinElmer, Boston, MA).TPR2A-His6 was produced using a bacteria expression system and purified using a well developed method (Ghosh et al., 2000). Hsp90 C terminal 20-mer peptide with or without an N-terminal biotin group are synthesized using automated solid phase synthesis by the Yale Keck facility. The composition of assay buffer was (in mM) 25 HEPES, 100 KCl, 2 MgCl2 and 2 DTT; 0.1% BSA and 0.01% Tween-20. TPR2A-His6 binding to biotin-Hsp90 will bring streptavidin donor beads and nickel chelate acceptor beads (PerkinElmer) together and can be measured by Alpha reading by EnVision (PerkinElmer). Free Hsp90 blocks biotin-Hsp90 binding to TPR2 and serves as a positive control in the current asssay.
# The assay was performed at room temperature. All compounds were screened as titrations from […] to 46 uM final concentration. The assay was performed in 1536-well format plates (untreated white solid bottom, Corning Inc.) as follows:
# Sequence,Parameter,Value,Description
# 1,Reagent,3 uL TPR2A-His6,Final concentration was 5nM
# 2,Compound,23 nL,Final titration was from 0.7 nM to 46 uM
# 3,Time,15 minutes,Room temperature
# 4,Reagent,1 uL biotin-Hsp90,With and without free Hsp90. Final concentration was 10 nM for biotin-Hsp90 and 10uM for free Hsp90.
# 5,Time,1 hour,Room temperature
# […]
# On the % scale 0 is the no-effect control and ±100 the full control effect; potency means the concentration at half of the fitted maximal effect.
SMILES,"activity change, negative = inhibition",Potency
CCn1c(SCC(=O)Nc2nc3ccccc3s2)nnc1-c1ccc(OC)cc1,inconclusive: 55.7%,–
Cc1ccc2oc(=O)n(CCCOc3ccccc3)c2c1,–,"inconclusive: 25.1 µM [activator, single point]"
COc1ccc(CC(C(=O)Nc2cc(C)ccc2C)/C(N)=N/O)cc1 (stereo not drawn),inconclusive: 44%,–
NC1=NC(S)C2N=CN=C2N1 (stereo not drawn),inactive,–
CC1CCN(S(=O)(=O)c2ccc(Cl)cc2Br)CC1,–,"inconclusive: 31.6 µM [activator, single point]"
O=C1C(Cl)=C(NC2CCc3ccccc32)C(=O)c2ncccc21 (stereo not drawn),–,"inconclusive: 6.31 µM [inhibitor, partial curve]"
CCN(CC)CCCN1C(=O)C(O)=C(C(=O)c2cc3cccc(OC)c3o2)C1c1ccncc1 (stereo not drawn),inconclusive: 42.1%,–
Cc1nc(SCc2nc3ccccc3[nH]2)c2oc3ccccc3c2n1,inconclusive: 27.8%,–
Cc1nnc2n(Cc3ccccc3)c(=O)c3c4c(sc3n12)CCCC4,inactive,–
C=CCSC1=N/C(=C\C=C\c2ccco2)C(=O)S1,–,"inconclusive: 31.6 µM [inhibitor, single point]"
CCc1ccc(C2CC(c3ccccc3)Nc3nc(N)nn32)cc1 (stereo not drawn),inactive,–
CCOC(=O)C1CCCN(C(=O)c2cc3nc(-c4cccc(OC)c4)cc(C(F)(F)F)n3n2)C1 (stereo not drawn),–,"inconclusive: 31.6 µM [activator, single point]"
C=CCNc1nc(NCc2ccco2)nc(OCC)n1,inconclusive: 49.1%,–
NC(=O)COc1ccc(NC(=O)OCc2ccccc2)cc1,inconclusive: 45.1%,–
Cc1c(NC(=O)c2noc3c2CCc2ccccc2-3)c(=O)n(-c2ccccc2)n1C,inconclusive: 45.4% [at 2.3 µM],–
O=C(CSc1nc2ccccc2c(=O)n1-c1ccc(Cl)cc1)c1ccco1,inactive,–
CC(C)n1c2ccccc2c2nc3ccccc3nc21,–,active: 31.6 µM [activator]
Cc1ccc2c(c1)-c1cc(C)nn1C(c1ccc3c(c1)OCO3)N2 (stereo not drawn),–,"inconclusive: 39.8 µM [activator, single point]"
CCCc1nc(SCc2cccnc2)c2c(=O)n(C)c(=O)n(C)c2n1,inactive,–
CC(=O)c1c(N2CCN(Cc3ccccc3)CC2)[nH]c(-c2ccccc2)nc1=S,–,"inconclusive: 3.98 µM [inhibitor, partial curve]"
COc1ccccc1Nc1nc(N)nc(CN2CCN(Cc3ccccc3)CC2)n1,–,"inconclusive: 31.6 µM [inhibitor, single point]"
C[N+](C)(C)CC(=O)N/N=C\c1c(O)ccc2ccccc12,–,active: 3.16 µM
O=C(c1cccc(S(=O)(=O)N2CCCC2)c1)c1nnc(-c2ccncc2)o1,inconclusive: 27.6%,–
COc1ccc(C(=O)[C@H]2[C@H]3[C@@H](C(=O)[C@@H]4OC[C@H]3O4)[C@H]3C=Cc4ccccc4N32)c(OC)c1,–,"inconclusive: 31.6 µM [inhibitor, partial curve]"
CCCCOc1ccc(-c2nnn(C(C)(C)C(=O)OC)n2)cc1,–,active: 25.1 µM [activator]
O=C(O)C(=Cc1ccnc2ccccc12)C(=O)O,inactive: -0.82% [at 11 µM],–
CCN1CCCC1Cn1c(-c2ccccc2)nc2c(N3CCOCC3)nc(C)nc21 (stereo not drawn),inactive,–

# In the list so far, two have two or more sulfur atoms.
SMILES,"activity change, negative = inhibition",Potency
CCn1c(SCC(=O)Nc2nc3ccccc3s2)nnc1-c1ccc(OC)cc1,inconclusive: 55.7%,–
C=CCSC1=N/C(=C\C=C\c2ccco2)C(=O)S1,–,"inconclusive: 31.6 µM [inhibitor, single point]"

# Next records

SMILES,"activity change, negative = inhibition",Potency
CCN(CC)S(=O)(=O)c1cc(C(=O)Nc2ccc(Cl)cn2)ccc1C,inactive: 9.13% [at 11 µM],–
Cc1ccsc1C(=O)Nc1nnc(-c2ccco2)o1,–,"inconclusive: 25.1 µM [inhibitor, partial curve]"
O=C1C2C3C=CC(C2C(=O)N1CN1CCOCC1)C1C2C(=O)N(CN4CCOCC4)C(=O)C2C31 (stereo not drawn),inconclusive: 87.9% [at 11 µM],–
CCN(CC)CCCC(C)n1c(-c2ccccc2)nc2c(NCCO)nc(C)nc21 (stereo not drawn),inactive,–
N#Cc1ccsc1NC(=O)c1ccccn1,–,"inconclusive: 25.1 µM [inhibitor, partial curve]"
COc1ccc(-c2cc(C(F)(F)F)nc(N3CCCCC3)n2)cc1OC,–,active: 25.1 µM [activator]
CC(=O)N1C2(C=CC1(C)C(=O)NCc1ccccn1)CCCCC2 (stereo not drawn),–,"inconclusive: 15.8 µM [inhibitor, partial curve]"
c1ccc(-c2noc(-c3cccc4ccccc34)n2)nc1,inactive,–
N=C1Sc2ccccc2C2=NCCCN12,inactive,–
COc1ccc(-c2nn(-c3ccccc3)cc2/C=N/n2cnnc2)cc1OC,inactive,–
CC(=O)C(Sc1nc(N2CCOCC2)nc(N2CCOCC2)n1)C(=O)Nc1ccccc1 (stereo not drawn),inactive,–
CCc1c(O)nc(SCC(=O)NCc2ccco2)[nH]c1=O,inconclusive: 33.4%,–
Cc1cc(C(=O)OCC(=O)N2c3ccccc3CC2C)c(C)o1 (stereo not drawn),inconclusive: 53.4%,–
COc1cccc2cc(C(=O)N3CCN(C(=O)c4ccco4)CC3)c(=O)oc12,inconclusive: 36%,–
S=C(Nc1ccccn1)c1ccccn1,–,active: 10 µM
Cc1ccccc1-c1nc(Cc2ccc(Cl)cc2)no1,–,"inconclusive: 31.6 µM [activator, single point]"
O=S(=O)(Nc1ccc(-c2cn3ccsc3n2)cc1)c1ccc2c(c1)OCCO2,inactive,–
CC(C)OCCCNC(=O)c1cc2c(=O)n(C)c3ccccc3c2n1C,inactive: -3.44% [at 2.3 µM],–
c1ccc(CNCCN2CCNCC2)nc1,–,active: 3.98 µM
CC(C)c1nc(N2CCCC2)c(C#N)c2c1CCCC2,inconclusive: 124%,–
COc1ccc(C2c3c(oc4ccc(F)cc4c3=O)C(=O)N2CCN2CCOCC2)cc1OC (stereo not drawn),inactive,–
O=C(Oc1cccc2cccnc12)c1cccc(-n2cnnn2)c1,inconclusive: -88.3%,–
O=C(c1ccccc1)c1ccc(N2CCCC2)cc1,–,"inconclusive: 20 µM [activator, partial curve]"
Cc1ccc(Cc2nc(-c3cccc(C)c3)no2)cc1,–,"inconclusive: 31.6 µM [activator, single point]"
Cc1ccc(OCc2nc(-c3ccccc3)no2)c(C)c1,–,"inconclusive: 25.1 µM [activator, single point]"
O=C(CSc1nnc(-c2ccc(O)cc2)o1)N1CCOCC1,inconclusive: 75.1%,–
